In PMC8250429:
Results are given in words; binding and its absence hold for the method and conditions named. In cells and extracts the contact can be indirect. Some entries that bind do so weakly or less than the wild type.

Chains of the proteins cited; added tags and fusions are not shown.
UniProt O94921: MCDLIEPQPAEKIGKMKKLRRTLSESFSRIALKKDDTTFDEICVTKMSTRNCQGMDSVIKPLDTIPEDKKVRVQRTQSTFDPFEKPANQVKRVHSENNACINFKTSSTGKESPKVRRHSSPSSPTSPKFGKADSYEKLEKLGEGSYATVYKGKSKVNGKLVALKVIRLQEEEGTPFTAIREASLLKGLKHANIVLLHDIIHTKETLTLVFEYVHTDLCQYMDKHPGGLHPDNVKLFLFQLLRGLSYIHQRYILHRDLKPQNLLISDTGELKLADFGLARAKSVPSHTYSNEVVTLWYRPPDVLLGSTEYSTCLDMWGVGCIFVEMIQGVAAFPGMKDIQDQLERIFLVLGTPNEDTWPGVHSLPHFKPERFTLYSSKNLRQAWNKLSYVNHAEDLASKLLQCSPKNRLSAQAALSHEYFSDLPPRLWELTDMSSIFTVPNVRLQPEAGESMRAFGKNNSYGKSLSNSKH

Target: PFTAIRE protein kinase 1 (PFTK1) (human (endogenous in H1299)) (UniProt O94921)
Experiment: co-IP; H1299-CCNYm and H1299-CCNYc cells (stably expressing GFP-tagged CCNY isoforms); which protein was precipitated and the conditions are not told

Cyclin Y isoform 1 (CCNYm, membrane isoform) with GFP tag (from UniProt Q8ND76-1 1-341)
binding: binds
